No constants are given. Whether binding was seen depends on the method and setting. Some results given as binding are weak or reduced against the parent protein; the word gives no strength.

The chains behind the UniProt entries cited, without tags or fusion partners. Residues count along the entry.
UniProt P08670: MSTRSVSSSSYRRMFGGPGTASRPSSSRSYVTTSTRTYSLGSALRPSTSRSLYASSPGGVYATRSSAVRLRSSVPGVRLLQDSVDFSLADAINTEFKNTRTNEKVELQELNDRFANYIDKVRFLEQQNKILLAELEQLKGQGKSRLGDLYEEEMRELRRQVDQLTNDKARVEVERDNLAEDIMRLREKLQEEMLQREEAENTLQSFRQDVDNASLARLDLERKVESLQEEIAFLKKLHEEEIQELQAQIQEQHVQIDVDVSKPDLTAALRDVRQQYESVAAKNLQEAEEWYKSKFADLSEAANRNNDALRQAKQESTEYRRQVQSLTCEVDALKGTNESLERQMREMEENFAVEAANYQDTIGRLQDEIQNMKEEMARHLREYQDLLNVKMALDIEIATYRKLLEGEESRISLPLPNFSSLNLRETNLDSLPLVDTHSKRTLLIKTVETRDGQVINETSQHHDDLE
UniProt P35968, residues 20-764: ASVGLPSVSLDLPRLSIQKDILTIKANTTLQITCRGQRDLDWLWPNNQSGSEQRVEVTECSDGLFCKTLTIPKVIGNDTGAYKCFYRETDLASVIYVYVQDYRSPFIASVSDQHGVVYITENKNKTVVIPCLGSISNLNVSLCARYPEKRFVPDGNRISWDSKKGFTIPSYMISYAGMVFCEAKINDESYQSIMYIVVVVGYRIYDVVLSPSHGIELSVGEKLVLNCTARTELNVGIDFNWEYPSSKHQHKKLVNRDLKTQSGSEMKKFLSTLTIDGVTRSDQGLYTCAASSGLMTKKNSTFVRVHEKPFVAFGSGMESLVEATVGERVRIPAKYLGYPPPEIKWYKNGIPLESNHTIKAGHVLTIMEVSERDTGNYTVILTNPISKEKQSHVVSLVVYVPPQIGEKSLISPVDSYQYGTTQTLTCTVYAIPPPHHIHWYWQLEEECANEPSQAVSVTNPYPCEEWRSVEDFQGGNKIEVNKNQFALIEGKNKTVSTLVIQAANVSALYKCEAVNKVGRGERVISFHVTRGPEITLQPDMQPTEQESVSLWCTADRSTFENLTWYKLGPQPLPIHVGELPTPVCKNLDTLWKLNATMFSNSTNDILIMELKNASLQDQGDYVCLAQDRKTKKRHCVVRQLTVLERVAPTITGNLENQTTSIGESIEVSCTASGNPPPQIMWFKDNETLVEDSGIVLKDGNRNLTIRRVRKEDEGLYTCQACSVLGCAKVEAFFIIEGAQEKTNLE

Assay [1] deals with recombinant human vimentin (human) (UniProt P08670). Briefly: far-Western, overlay or dot blot; spot blot, reciprocal: vimentin, VEGFR2 or BSA spotted on nitrocellulose, blocked, incubated with vimentin, VEGFR2 or BSA; bound protein detected with anti-vimentin or anti-VEGFR2 antibodies; both purified.
The target is the same in assay [2]. Put plainly: ELISA; vimentin, VEGF or BSA (2 µg/ml) coated; blocked with 4% non-fat dry milk in PBS; VEGFR2-Fc added at 10 ng/ml to 5 µg/ml; detected with biotinylated goat-anti-human Fc antibody and streptavidin-HRP; both purified. Background: ELISA stands for enzyme-linked immunosorbent assay.
Assay [3] deals with VEGFR2-Fc (UniProt P35968). Briefly: far-Western, overlay or dot blot; spot blot, reciprocal: vimentin, VEGFR2 or BSA spotted on nitrocellulose, blocked, incubated with vimentin, VEGFR2 or BSA; bound protein detected with anti-vimentin or anti-VEGFR2 antibodies; both purified.
Assay [4] addresses VEGFR2-Fc (UniProt P35968). Put plainly: SPR; Biacore T200, CM5 chip; VEGFR2-Fc immobilised by amine coupling (~900 RU); concentration series of vimentin or VEGF injected in PBS, 0.05% Tween-20, pH 7.4, 30 µl/min, 25 °C, 180 s association, 240 s dissociation; double referenced; n = 1; both purified. (In general: Surface plasmon resonance follows binding to a sensor surface in real time, without labels.)

Regarding “VEGFR2-Fc (from UniProt P35968 20-764) (Fc fusion)”, the binding result in assay [1] and in assay [2] was “binds” in each case.
As for “recombinant human vimentin (from UniProt P08670 1-466)”, the binding result in the assay with VEGFR2-Fc [3] and in the assay with VEGFR2-Fc [4] was “binds” each time.

For the origin of these results see PMC9126915.
